Source: patent US7235380
Numbering of substitutions follows the chain as printed. No constants are given. Whether binding was seen depends on the method and setting. Some binding calls cover weakened binding; strength is not graded here. One block for each binder: values may come before it.

Sequences of proteins named here, by UniProt entry; tags and fusion partners are left off. Residues count along the entry.
UniProt P13726, residues 33-295: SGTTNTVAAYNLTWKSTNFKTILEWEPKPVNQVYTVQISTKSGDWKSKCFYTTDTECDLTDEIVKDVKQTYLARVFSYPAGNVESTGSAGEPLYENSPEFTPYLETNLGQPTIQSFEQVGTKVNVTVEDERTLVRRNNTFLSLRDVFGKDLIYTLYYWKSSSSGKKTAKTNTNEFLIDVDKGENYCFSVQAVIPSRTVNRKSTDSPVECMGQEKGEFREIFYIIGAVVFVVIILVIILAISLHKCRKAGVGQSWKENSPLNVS

What was measured:
[1] = biological target: human tissue factor (human) (UniProt P13726); assay: ELISA, TF immobilized on a microtiter plate, COS supernatant, anti-human kappa-HRP detection
[2] = biological target: human tissue factor (human) (UniProt P13726); assay: direct and competition ELISA on plate-coated TF
[3] = biological target: human tissue factor (human) (UniProt P13726); assay: ELISA on plate-coated TF (FIG. 3)
[4] = biological target: human tissue factor (human) (UniProt P13726); assay: ELISA on plate-coated TF, COS supernatants

binding [1]: binds | binding [2]: binds | binding [3]: binds
B1: CDR-grafted antibody TF8HCDR1×TF8LCDR1 (antibody, human IgG4, V domains shown)
VH: QVQLVQSGGGVVQPGRLLRLSCKASGFNIKDYYMHWVRQAPGKGLEWIGLIDPENGNTIYDPKFQGRFSISADTSKNTAFLQMDSLRPEDTAVYYCARDNSYYFDYWGQGTPVTVSS
VL: DIQMTQSPSSLSASVGDRVTITCKASQDIRKYLNWYQQKPWKAPKTLIYYATSLADGVPSRFSGSGSGTDYTFTISSLQPEDIATYYCLQHGESPYTFGQGTKLEITR

binding [4]: binds
B2: TF8HCDR20 in combination with TF8LCDR1 (antibody, human IgG4, V domains shown)
VH: B1 VH with Q6E, L17S, S69T, T74N, A79L
VL: B1 VL
